Reference: PubChem BioAssay (NCATS)
The inconclusive results got no clear call from the source; some entries with a clear call stand among them for comparison. Potencies of inconclusive entries are doubtful fits and often do not repeat. The source made the active and inactive calls. The call rests on the fitted dose curve; in most records, active means well fitted cell-killing curve with a large enough effect; inconclusive means small, poorly fitted or top-dose-only effect, or effect the other way; inactive means no such curve, though single readings can be large or run the other way.
Potency means the concentration at half of the fitted maximal effect.

Assay: Quantitative High-Throughput drug screen in 47 multiple myeloma cell lines against the NCATS MIPE library collection: U266_ATCC cell viability assay (AID 1919864); further: nearly all actives have a fitted effect of over 35% in size
Conditions: U266 myeloma viability, CellTiter-Glo ATP luminescence, 48 h; series mostly up to 45.8 µM
Procedure, shortened: (§1)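 500 cells/well per myeloma line exposed to pinned MIPE 4.0 compounds for 48 h at 37 °C, 5% CO2. Viability read as ATP by CellTiter-Glo luminescence, normalised to DMSO-only (100%) and media-only (0%) wells.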
For N#CC(c1ccc(Cl)cc1)c1c(Cl)cc(-n2ncc(=O)[nH]c2=O)cc1Cl (stereo unspecified), the Potency was inconclusive: 18.7 µM [cytotoxic, partial curve, poor fit].
With CN(C)CCN(Cc1ccc(Cl)cc1)c1ccccn1 the Potency was inconclusive: 33.2 µM [cytotoxic, single point].
For CCN(C)C(=O)Oc1cccc([C@H](C)N(C)C)c1, the Potency was inconclusive: 23.5 µM [cytotoxic, partial curve, poor fit].
With CCN(CCO)CCCOc1ccc2c(Nc3cc(CC(=O)Nc4cccc(F)c4)[nH]n3)ncnc2c1 the Potency was “inactive”.
For N#CC(=C(O)c1ccc(Cl)cc1Cl)c1nc2cc(Cl)ccc2c(=O)[nH]1, the Potency was “inactive”.
For CCCCOCCOc1nc(-c2ccc(C(=O)O)c(F)c2)sc1C, the Potency was inconclusive: 20.9 µM [cytotoxic, partial curve, poor fit].
In the case of CC(C)(Oc1ccc(C2CC2(Cl)Cl)cc1)C(=O)O (stereo unspecified), the Potency is reported as “inactive”.
In the case of CN1CCC[C@H]1CCO[C@](C)(c1ccccc1)c1ccc(Cl)cc1, the Potency is reported as inconclusive: 33.2 µM [cytotoxic, single point].
For C=CCn1c(=O)c2cnc(Nc3ccc(N4CCN(C)CC4)cc3)nc2n1-c1cccc(C(C)(C)O)n1, the Potency was inconclusive: 1.18 µM [cytotoxic, full curve, poor fit].
For CC(NCCc1ccc(O)cc1)C(O)c1ccc(O)cc1 (stereo unspecified), the Potency was “inactive”.
In the case of Cn1c(=O)c2c(ncn2CC(O)CO)n(C)c1=O (stereo unspecified), the Potency is reported as inconclusive: 18.7 µM [rising, partial curve, poor fit].
For N[C@@H](Cc1ccc(O)c(O)c1)C(=O)O, the Potency was “inactive”.
For CON=C(C(=O)N[C@@H]1C(=O)N2C(C(=O)O)=C(Cn3ccc(=N)n3CCO)CS[C@H]12)c1csc(N)n1, the Potency was inconclusive: 0.526 µM [rising, partial curve, poor fit].
For O=C(O)CCc1ccc(NCc2cccc(Oc3ccccc3)c2)cc1, the Potency was inconclusive: 0.0026 µM [rising, full curve, poor fit].
For COc1cccc(Nc2c(C(N)=O)cnc3c(C)cc(S(=O)(=O)c4cccc(C(=O)N(C)C)c4)cc23)c1, the Potency was inconclusive: 0.0016 µM [rising, full curve, poor fit].

Assay: Quantitative High-Throughput drug screen in 47 multiple myeloma cell lines against the NCATS MIPE library collection: XG6_PLB cell viability assay (AID 1919865); further: nearly all actives have a fitted effect of over 40% in size
Conditions: XG6 myeloma viability, CellTiter-Glo ATP luminescence, 48 h; series mostly up to 45.8 µM
Procedure, shortened: as §1
For CC(C)C[C@H](NC(=O)c1cc2ccccc2s1)C(=O)N1CCN(C(=O)[C@H](CO)NS(=O)(=O)c2ccc(Cl)cc2Cl)CC1, the Potency was inconclusive: 29.6 µM [cytotoxic, single point].
In the case of Cc1oc(=O)oc1CN1CCN(c2cc3c(cc2F)c(=O)c(C(=O)O)c2n3C(C)S2)CC1 (stereo unspecified), the Potency is reported as inconclusive: 20.9 µM [cytotoxic, partial curve, poor fit].
With Nc1cccc(S(=O)(=O)N2CCCN(S(=O)(=O)c3ccc4c(c3)OCCO4)CC2)c1 the Potency was inconclusive: 6.62 µM [cytotoxic, full curve, poor fit].
With Oc1ccc([C@@H]2Oc3ccc(O)cc3[C@@H]3CCC[C@@H]32)cc1 the Potency was inconclusive: 3.32 µM [cytotoxic, full curve].
For N#CC(=C(N)Sc1ccc(N)cc1)c1ccccc1C(F)(F)F, the Potency was inconclusive: 2.64 µM [cytotoxic, partial curve].
For CCC(=O)N1CCN(c2ccc(-n3c(=O)ccc4cnc5ccc(-c6cnc7ccccc7c6)cc5c43)cc2C(F)(F)F)CC1, the Potency was inconclusive: 0.0105 µM [cytotoxic, full curve].
With CCn1c(=O)c2c(nc(C=Cc3ccc(OC)c(OC)c3)n2C)n(CC)c1=O the Potency was inconclusive: 0.0296 µM [cytotoxic, full curve, poor fit].
For Cc1ccc2c(=O)c3cccc(CC(=O)O)c3oc2c1C, the Potency was inconclusive: 37.2 µM [cytotoxic, single point].
For CN(C)CCN(Cc1ccc(Cl)cc1)c1ccccn1, the Potency was inconclusive: 14.8 µM [cytotoxic, partial curve].
For COc1ccc2[nH]cc(CCNC(C)=O)c2c1, the Potency was inconclusive: 33.2 µM [cytotoxic, single point].
For CC(=O)N1CCN(c2ccc(OC[C@H]3CO[C@](Cn4ccnc4)(c4ccc(Cl)cc4Cl)O3)cc2)CC1, the Potency was inconclusive: 16.6 µM [cytotoxic, partial curve].
In the case of CCN(C)C(=O)Oc1cccc([C@H](C)N(C)C)c1, the Potency is reported as inconclusive: 0.0015 µM [rising, full curve, poor fit].
In the case of N#CC(=C(O)c1ccc(Cl)cc1Cl)c1nc2cc(Cl)ccc2c(=O)[nH]1, the Potency is reported as inconclusive: 11.8 µM [cytotoxic, partial curve, poor fit].
In the case of CCCCOCCOc1nc(-c2ccc(C(=O)O)c(F)c2)sc1C, the Potency is reported as inconclusive: 33.2 µM [cytotoxic, single point].
With CC(C)(Oc1ccc(C2CC2(Cl)Cl)cc1)C(=O)O (stereo unspecified) the Potency was inconclusive: 38.2 µM [cytotoxic, partial curve, poor fit].
In the case of CC(c1cc2ccccc2s1)N(O)C(N)=O (stereo unspecified), the Potency is reported as “inactive”.
With C=CCn1c(=O)c2cnc(Nc3ccc(N4CCN(C)CC4)cc3)nc2n1-c1cccc(C(C)(C)O)n1 the Potency was inconclusive: 0.209 µM [cytotoxic, full curve].
In the case of CC(NCCc1ccc(O)cc1)C(O)c1ccc(O)cc1 (stereo unspecified), the Potency is reported as “inactive”.
With Cn1c(=O)c2c(ncn2CC(O)CO)n(C)c1=O (stereo unspecified) the Potency was “inactive”.
For N[C@@H](Cc1ccc(O)c(O)c1)C(=O)O, the Potency was “inactive”.
For O=C(O)CCc1ccc(NCc2cccc(Oc3ccccc3)c2)cc1, the Potency was “inactive”.
